The campaign covered roughly 330,000 compounds. About 7,700 (2.3%) were called active. Inconclusive results, whose numbers are uncertain, are shown with a selection of clear calls. Calls follow the shape of the dose curve; as a rule, active = well fitted inhibition curve with a large enough effect; inconclusive = small, poorly fitted or top-dose-only effect, or effect the other way; inactive = flat fitted curve, though single readings scatter. Potencies beside an inconclusive call are fits to weak or partial responses and may not hold up.
assay: qHTS screen for small molecules that inhibit ELG1-dependent DNA repair in human embryonic kidney (HEK293T) cells expressing luciferase-tagged ELG1; settings: HEK293T ELG1-luciferase reporter, luminescence, 16 h, DNA damage induced by 5-fluorouridine; series mostly up to 46.1 µM; also: nearly all actives have a fitted effect of over 55% in size
In short: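 Quantitative HTS, concentration-response format. 2,000 cells/well co-treated with 5-fluorouridine and compound, 16 hr in 5% CO2 at 37 °C; ONE-Glo luminescence read after 30 min.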
Potency is read from the fitted curve at half-maximal effect.

| Compound | Potency |
| --- | --- |
| CCN(CC)c1ccc(/C=C/[N+](=O)[O-])cc1 | inconclusive: 23.1 µM [activator, partial curve] |
| COc1ccc2c3c([nH]c2c1)C(C)=NCC3 | active: 9.2 µM |
| O=C(c1cc(-c2cccnc2)nc2ccc(Cl)cc12)N1CCC2(CC1)OCCO2 | inconclusive: 7.31 µM [inhibitor, partial curve, poor fit] |
| CC1CC(OP(O)(=S)c2ccc(N(C)C)cc2NC(=O)c2cccs2)CC(C)(C)C1 (centres undefined) | inactive |
| CN(Cc1c[nH]c2ccccc12)C1CCCCC1 | inconclusive: 11.6 µM [inhibitor, partial curve] |
| O=c1c2ccccc2nc(/C=C/c2ccccc2)n1-c1ccc(O)cc1 | inconclusive: 13 µM [inhibitor, partial curve, poor fit] |
| O=C(CN1CCCCC1)c1cccc(Br)c1 | inactive |
| COc1ccc(CCNC2CCCCCC2)cc1 | inactive |
| COc1ccc(/C=C/C2=CCN(C)CC2)cc1 | inconclusive: 18.3 µM [activator, single point] |
| Fc1ccc(C2=CCN(C(c3cccs3)c3nnnn3CCc3ccccc3)CC2)cc1 (centres undefined) | inconclusive: 16.4 µM [inhibitor, single point] |
| Cn1c2ccccc2c2c(C(=O)N3CCC4(CC3)OCCO4)cn(C3CCCC3)c(=O)c21 | inconclusive: 13 µM [inhibitor, partial curve] |
| C=CCN1C(=O)NC(=O)/C(=C/c2cccn2C)C1=O | inconclusive: 16.4 µM [activator, single point] |
| O=C1NC(=O)N(CCNc2ncc(C(F)(F)F)cc2Cl)C(=O)C1/C=N/OCc1c(F)cccc1Cl (centres undefined) | inactive |
| NC(Cc1nc2ccccc2[nH]1)c1ccc(Cl)cc1 (centres undefined) | inconclusive: 9.2 µM [activator, partial curve] |
| O=C(Oc1ccc2ccc(OC(=O)N3CCCCCC3)cc2c1)N1CCCCCC1 | inconclusive: 7.31 µM [activator, partial curve, poor fit] |
| O=c1c2ccccc2nc(CNCC2CCCO2)n1-c1ccc(F)cc1 (centres undefined) | inactive |
| CN1CCN(C(=O)COc2ccc(-c3nc4ccccc4s3)cc2)CC1 | inconclusive: 2.59 µM [activator, partial curve] |
| Cc1c(N=Nc2c(O)n(Cc3ccccc3)c(=O)[nH]c2=O)c(=O)n(-c2ccccc2)n1C | inconclusive: 29.1 µM [inhibitor, single point] |
| Cc1ccc(N2C(=O)NC(=O)/C(=C\c3cc(C)n(-c4cc(C(=O)O)cc(C(=O)O)c4)c3C)C2=O)cc1 | inconclusive: 16.4 µM [activator, partial curve, poor fit] |
| C[C@H](CO)N1C[C@H](C)[C@@H](CN(C)C(=O)NC2CCCCC2)Oc2c(NC(=O)Nc3ccc4c(c3)OCO4)cccc2C1=O | active: 14.6 µM |
| COCCN1Cc2cc(=O)n3c([nH]c4ccccc43)c2C1=N | inconclusive: 23.1 µM [activator, single point] |
| O=C1NC(=O)C(=Cc2cccc(OCCOc3ccccc3)c2)C(=O)N1 | inconclusive: 2.31 µM [activator, full curve] |

Single values from the results shown:
Potency with `COc1ccc(CCNC2CCCCCC2)cc1` is entered as inactive
Potency with `Cc1c(N=Nc2c(O)n(Cc3ccccc3)c(=O)[nH]c2=O)c(=O)n(-c2ccccc2)n1C` is entered as inconclusive: 29.1 µM [inhibitor, single point]
Potency with `NC(Cc1nc2ccccc2[nH]1)c1ccc(Cl)cc1` (centres undefined) is entered as inconclusive: 9.2 µM [activator, partial curve]

Next part

| Compound | Potency |
| --- | --- |
| CCc1ccc(N2C(=O)NC(=O)C(CCc3ccncc3)(CCc3ccncc3)C2=O)cc1 | inconclusive: 18.4 µM [activator, partial curve, poor fit] |
| NC(=O)c1cn(C2OC(CO)C(O)C2O)c2ncnc(N)c12 (centres undefined) | active: 0.103 µM |
| COP(=O)(OC)C(Nc1ccccn1)c1ccccc1 (centres undefined) | inactive |
| Fc1ccccc1CCNCc1cccc(Cl)c1Cl | inconclusive: 29.1 µM [activator, single point] |
| CC1=C/C(=N\NC(=S)NCCc2ccccc2)CC(C)(C)C1 | inconclusive: 29.1 µM [activator, single point] |
| CC(=O)NC(Cc1ccc(N(CCCl)CCCl)cc1)C(=O)NC(C(=O)O)C(C)C (centres undefined) | inactive |
| O=C(c1ccccc1)C(CN1CCCC1)c1ccccc1 (centres undefined) | active: 18.4 µM |
| Cc1oc(-c2ccccc2)nc1CN1C(=O)CN=C(c2ccccc2)c2ccccc21 | inactive |
| O=C1CN=C(c2ccc(Br)cc2)c2c(sc3c2CCCC3)N1CCN1CCCCC1 | inconclusive: 29.1 µM [inhibitor, single point] |
| CCOc1ccc(N2C(=O)NC(=O)/C(=C\c3ccc(N4CCCCC4)o3)C2=O)cc1 | inconclusive: 0.231 µM [activator, single point] |
| OC(c1ccc(F)cc1)(c1ccc(F)cc1)[C@@H]1CCCN1 | inactive |
| CC(C(=O)c1c[nH]c2ccccc12)N1CCc2ccccc2C1 (centres undefined) | inconclusive: 18.4 µM [inhibitor, partial curve, poor fit] |
| CCC(=Nc1ccc2c(c1)CCC2)c1c(O)n(-c2ccc(OC)cc2)c(=O)[nH]c1=O | inactive |
| O=C(Oc1ccc(Cl)cc1)N1CCOCC1 | inconclusive: 25.9 µM [activator, partial curve, poor fit] |
| CCN1C(=O)NC(=O)/C(=C\c2cn(CC(=O)N3CCCC3)c3ccccc23)C1=O | inconclusive: 5.8 µM [inhibitor, partial curve, poor fit] |
| Cn1c(=O)oc2cc(S(=O)(=O)N3CCCc4ccccc43)ccc21 | inconclusive: 5.8 µM [inhibitor, full curve] |
| C=CCn1c(O)c(C(CC)=NCCc2c[nH]c3ccccc23)c(=O)[nH]c1=O | inconclusive: 18.3 µM [inhibitor, single point] |
| Cc1ccsc1C(=O)C1CCCN(Cc2cc(C(C)C)n[nH]2)C1 (centres undefined) | inactive |
| O=[N+]([O-])c1ccccc1CN1CC=C(c2ccc(F)cc2)CC1 | inconclusive: 5.17 µM [activator, partial curve] |
| N#Cc1cc2c(nc1SCC(=O)Nc1cc(Cl)ccc1Cl)C1CCN2CC1 | inactive |
| CC(=O)O[C@H](CC(=O)O)C[N+](C)(C)C | inactive |
| CN1C(=O)/C(=C\c2ccc(N3CCCCCC3)cc2)C(=O)NC1=S | inactive |
| O=C(Nc1ccc(Cl)cc1)Nc1nccs1 | inconclusive: 29.1 µM [activator, single point] |

Taken from the results shown (two entries):

| Compound | Potency |
| --- | --- |
| CCN(CC)c1ccc(/C=C/[N+](=O)[O-])cc1 | inconclusive: 23.1 µM [activator, partial curve] |
| COc1ccc2c3c([nH]c2c1)C(C)=NCC3 | active: 9.2 µM |

Further results follow.

| Compound | Potency |
| --- | --- |
| Cc1cc(C)c(Cn2c(C(=O)O)c(C=O)c3ccccc32)c(C)c1 | inactive |
| CC(=O)c1ccc(OC(=O)N2CCOCC2)cc1 | inconclusive: 20.6 µM [activator, single point] |
| CCOc1cc(/C=N/NC(=O)c2cccs2)ccc1OC(=O)N1CCOCC1 | inconclusive: 32.6 µM [inhibitor, single point] |
| O=C(c1ccc2c(c1)OCO2)N1CCC2(CC1)OCCO2 | inactive |
| COc1ccccc1N1CCN(S(=O)(=O)CCNC(=O)CCCc2ccccc2)CC1 | inconclusive: 25.9 µM [inhibitor, single point] |
| CC(C)(C)C(=O)O[C@H]1CC[C@@]2(C)C(=CC(=O)C3C2CC[C@]2(C)C(=O)[C@@H](F)CC32)C1 (some centres undefined) | inconclusive: 25.9 µM [inhibitor, single point] |
| CCCNC(=O)c1c(N)n(Cc2ccc3c(c2)OCO3)c2nc3ccccc3nc12 | inconclusive: 29.1 µM [inhibitor, single point] |
| c1ccc(OCc2ccc(CCCN3CCOCC3)cc2)cc1 | inconclusive: 9.2 µM [activator, partial curve, poor fit] |
| Cc1ccc(CNCCc2ccccc2F)cc1 | inactive |
| COCCCn1c(N)c(C(=O)OC(C)COC)c2nc3ccccc3nc21 (centres undefined) | inconclusive: 20.6 µM [inhibitor, partial curve] |
| COc1cccc(/C=C2\N=C(c3cncc(Br)c3)OC2=O)c1 | inconclusive: 29.1 µM [activator, single point] |
| CN1C(=O)CC(c2ccccc2)Nc2ccccc21 (centres undefined) | inconclusive: 20.6 µM [activator, partial curve] |
| CN1C(=O)C(=Cc2ccccc2Oc2ccc(Cl)cc2)C(=O)N(C)C1=O | inactive |
| Cn1c(O)c(C2=NNC(c3ccc(Cl)cc3)C2)c(=O)n(C)c1=O (centres undefined) | inconclusive: 29.1 µM [inhibitor, single point] |
| CC(C)COC(=O)n1c(=O)oc2ccc(S(=O)(=O)N3CCCCC3)cc21 | inconclusive: 29.1 µM [inhibitor, single point] |
| Cc1ccccc1-n1c(-c2ccco2)nc2ccccc2c1=O | inconclusive: 18.4 µM [inhibitor, partial curve, poor fit] |
| C#CCN1CCN(c2cccc(C(F)(F)F)c2)CC1 | inconclusive: 18.3 µM [activator, partial curve, poor fit] |
| CC(=O)Nc1nnc(CCN(CCc2nnc(NC(C)=O)s2)[N+](=O)[O-])s1 | inactive |
| COc1cc(C#Cc2c(-c3cncn3C)n(C)c3ccc(-c4cnc(N5CCOCC5)nc4)cc23)cc(OC)c1 | inconclusive: 16.4 µM [inhibitor, single point] |
| CCN(CC)S(=O)(=O)N1CCC(C(=O)N2CCC3(CC2)OCCO3)CC1 | inconclusive: 13 µM [activator, partial curve, poor fit] |
| CCOC(=O)C1(c2ccccc2)CCN(CCC(=O)Nc2ccc(F)cc2)CC1 | inactive |
| O=C(Nc1ccccc1)N1CC2CC(C1)c1cccc(=O)n1C2 (centres undefined) | inconclusive: 18.3 µM [activator, single point] |
| CCCCn1c(O)c(C(C)=NCc2ccc(F)cc2)c(=O)[nH]c1=O | inconclusive: 29.1 µM [inhibitor, partial curve, poor fit] |

— PubChem BioAssay AID504467 (National Center for Advancing Translational Sciences (NCATS), 2011)
